This is an account of results in publication PMC9992712.

No constants are given. Whether binding was seen depends on the method and setting. Binding seen in cells or lysates may run through a third protein. Here binding means that the protein was enriched with, or labelled near, the bait; the list need not be complete. Where a sequence is shown, tags or fusion partners need not be part of it.

T1: Atp6 subunit C-terminally tagged by HA-6xHis (S. cerevisiae) (UniProt P00854)
T1 sequence: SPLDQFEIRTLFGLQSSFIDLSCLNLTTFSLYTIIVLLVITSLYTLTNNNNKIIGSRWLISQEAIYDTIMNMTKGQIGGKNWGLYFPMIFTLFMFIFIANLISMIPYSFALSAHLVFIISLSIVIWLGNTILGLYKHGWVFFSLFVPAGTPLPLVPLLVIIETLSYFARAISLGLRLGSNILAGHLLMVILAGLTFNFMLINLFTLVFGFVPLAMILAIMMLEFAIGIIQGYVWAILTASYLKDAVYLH

B1: ATPase activity inhibitor protein Inh1 (protein, UniProt P01097 23-85)
chain: SEGSTGTPRGSGSEDSFVKRERATEDFFVRQREKEQLRHLKEQLEKQRKKIDSLENKIDSMTK
B2: ATP synthase subunit g/Atp20 (protein, UniProt Q12233 1-115)
chain: MLSRIQNYTSGLVSKANLLSSKALYYGKVGAEISKQIYLKEGLQPPTVAQFKSVYSNLYKQSLNFALKPTEVLSCLKNIQKNELLKYGAYGIQLIGFYSVGEIIGRRKLVGYKHH
B3: Mco10 (Mitochondrial class one protein of 10 kDa) (protein, UniProt Q3E824 1-90)
chain: MGAAYKVFGKTVQPHVLAISTFIATAAVASYFTTKPKTKNEGKNSSALSQQKSGESSNSDAMGKDDDVVKSIEGFLNDLEKDTRQDTKAN
B4: ATP synthase subunit i/Atp18 (protein, UniProt P81450 1-59)
chain: MLKRFPTPILKVYWPFFVAGAAVYYGMSKAADLSSNTKEFINDPRNPRFAKGGKFVEVD
B5: ATP synthase subunit k/Atp19 (protein, UniProt P81451 1-68)
chain: MGAAYHFMGKAIPPHQLAIGTLGLLGLLVVPNPFKSAKPKTVDIKTDNKDEEKFIENYLKKHSEKQDA
B6: ATP synthase subunit δ/Atp16 (protein, UniProt Q12165 23-160)
chain: AEAAAASSGLKLQFALPHETLYSGSEVTQVNLPAKSGRIGVLANHVPTVEQLLPGVVEVMEGSNSKKFFISGGFATVQPDSQLCVTAIEAFPLESFSQENIKNLLAEAKKNVSSSDAREAAEAAIQVEVLENLQSVLK
B7: ATP synthase subunit e/Atp21 (protein, UniProt P81449 1-96)
chain: MSTVNVLRYSALGLGLFFGFRNDMILKCNAKKKEEQAQYEEKLKLVEEAKKEYAKLHPVVTPKDVPANASFNLEDPNIDFERVILNAVESLKEAST
B8: ATP synthase subunit ε/Atp15 (protein, UniProt P21306 1-62)
chain: MSAWRKAGISYAAYLNVAAQAIRSSLKTELQTASVLNRSQTDAFYTQYKNGTAASEPTPITK

In one test the target is T1, Atp6 subunit C-terminally tagged by HA-6xHis (S. cerevisiae). Description: affinity purification with mass spectrometry; Atp6-HA-6His held on Ni-NTA agarose overnight; 1% N-dodecyl-β-maltoside extract of sonicated S. cerevisiae mitochondrial membranes; beads boiled, 15% SDS-PAGE, 5-20 kDa region analysed by LC/MS.
Consider B1, for which the binding result is listed as “binds”.
For B2, the binding result was “binds”.
On the same count and under the same terms, to B3 belongs “binds”; to B4, “binds”; to B5, “binds”.
Same read-out and setting: to B6 belongs “binds”; to B7, “binds”.
The same measure, in the same setting: to B8 belongs “binds”.

The next test has the same target. The test is described as above. The source holds these as a separate data set.
Cyt c (S. cerevisiae): the binding entry was “binds”.
